According to PMC9539790:
Results are given in words; binding and its absence hold for the method and conditions named. In cells and extracts the contact can be indirect. Some entries that bind do so weakly or less than the wild type.

Sequences of proteins named here, by UniProt entry; tags and fusion partners are left off. A change or cut given only in a name is not applied to a line headed by its entry. A line that says so, or that is headed by a name, gives the form on record, which may keep a tag or linker. Residues count along the entry.
CEACAM1-4L with a carboxyl terminus fused eYFP (CEACAM1-eYFP) (P13688, residues 35-526): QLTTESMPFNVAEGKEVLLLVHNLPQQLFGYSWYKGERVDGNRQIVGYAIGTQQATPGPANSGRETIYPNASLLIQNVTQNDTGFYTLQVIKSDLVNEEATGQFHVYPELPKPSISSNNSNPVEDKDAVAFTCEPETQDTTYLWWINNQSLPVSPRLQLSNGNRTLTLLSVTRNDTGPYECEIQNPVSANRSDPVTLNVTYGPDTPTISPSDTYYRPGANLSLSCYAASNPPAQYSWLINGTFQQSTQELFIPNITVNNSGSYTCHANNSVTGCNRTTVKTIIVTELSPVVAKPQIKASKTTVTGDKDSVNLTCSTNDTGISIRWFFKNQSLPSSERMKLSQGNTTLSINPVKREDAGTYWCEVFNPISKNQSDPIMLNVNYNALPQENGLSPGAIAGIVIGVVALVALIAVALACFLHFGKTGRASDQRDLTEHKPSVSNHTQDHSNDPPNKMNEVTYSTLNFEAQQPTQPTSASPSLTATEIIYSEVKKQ
CEACAM1 mutant (R43S/Q44L) (P13688, form named): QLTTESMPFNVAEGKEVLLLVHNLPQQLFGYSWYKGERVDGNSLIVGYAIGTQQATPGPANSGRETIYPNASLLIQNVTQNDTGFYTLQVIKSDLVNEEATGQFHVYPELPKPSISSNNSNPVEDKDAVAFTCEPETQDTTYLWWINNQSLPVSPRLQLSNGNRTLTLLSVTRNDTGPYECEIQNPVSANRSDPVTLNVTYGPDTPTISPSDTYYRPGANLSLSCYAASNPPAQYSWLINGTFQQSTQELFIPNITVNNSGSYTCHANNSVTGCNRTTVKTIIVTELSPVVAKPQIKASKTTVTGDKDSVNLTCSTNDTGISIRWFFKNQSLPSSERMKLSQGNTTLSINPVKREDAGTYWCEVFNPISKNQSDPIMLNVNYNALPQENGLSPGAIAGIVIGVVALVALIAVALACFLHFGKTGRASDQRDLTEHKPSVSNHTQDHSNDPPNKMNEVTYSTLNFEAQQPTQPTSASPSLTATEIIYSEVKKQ

Tests used:
[1] = target: CEACAM1-4L with a carboxyl terminus fused eYFP (CEACAM1-eYFP) (UniProt P13688); assay: FRET or BRET; TIRF homoFRET (steady-state fluorescence anisotropy of eYFP, pixel-wise anisotropy map) on HeLa cells expressing the eYFP fusion; live cells, also after fixation, permeabilisation and nanobody labelling
[2] = target: CEACAM1 mutant (R43S/Q44L) (UniProt P13688); assay: as above

binding [1] | binding [2] | Substance
binds |  | CEACAM1-4L with a carboxyl terminus fused eYFP (CEACAM1-eYFP) (from UniProt P13688-1 35-526) (receptor)
 | binds | CEACAM1 mutant (R43S/Q44L) (from UniProt P13688 35-526) (receptor)
